Results: article PMC3554735

By UniProt entry, the sequences of proteins in these tests, tags left out.
UniProt Q14160: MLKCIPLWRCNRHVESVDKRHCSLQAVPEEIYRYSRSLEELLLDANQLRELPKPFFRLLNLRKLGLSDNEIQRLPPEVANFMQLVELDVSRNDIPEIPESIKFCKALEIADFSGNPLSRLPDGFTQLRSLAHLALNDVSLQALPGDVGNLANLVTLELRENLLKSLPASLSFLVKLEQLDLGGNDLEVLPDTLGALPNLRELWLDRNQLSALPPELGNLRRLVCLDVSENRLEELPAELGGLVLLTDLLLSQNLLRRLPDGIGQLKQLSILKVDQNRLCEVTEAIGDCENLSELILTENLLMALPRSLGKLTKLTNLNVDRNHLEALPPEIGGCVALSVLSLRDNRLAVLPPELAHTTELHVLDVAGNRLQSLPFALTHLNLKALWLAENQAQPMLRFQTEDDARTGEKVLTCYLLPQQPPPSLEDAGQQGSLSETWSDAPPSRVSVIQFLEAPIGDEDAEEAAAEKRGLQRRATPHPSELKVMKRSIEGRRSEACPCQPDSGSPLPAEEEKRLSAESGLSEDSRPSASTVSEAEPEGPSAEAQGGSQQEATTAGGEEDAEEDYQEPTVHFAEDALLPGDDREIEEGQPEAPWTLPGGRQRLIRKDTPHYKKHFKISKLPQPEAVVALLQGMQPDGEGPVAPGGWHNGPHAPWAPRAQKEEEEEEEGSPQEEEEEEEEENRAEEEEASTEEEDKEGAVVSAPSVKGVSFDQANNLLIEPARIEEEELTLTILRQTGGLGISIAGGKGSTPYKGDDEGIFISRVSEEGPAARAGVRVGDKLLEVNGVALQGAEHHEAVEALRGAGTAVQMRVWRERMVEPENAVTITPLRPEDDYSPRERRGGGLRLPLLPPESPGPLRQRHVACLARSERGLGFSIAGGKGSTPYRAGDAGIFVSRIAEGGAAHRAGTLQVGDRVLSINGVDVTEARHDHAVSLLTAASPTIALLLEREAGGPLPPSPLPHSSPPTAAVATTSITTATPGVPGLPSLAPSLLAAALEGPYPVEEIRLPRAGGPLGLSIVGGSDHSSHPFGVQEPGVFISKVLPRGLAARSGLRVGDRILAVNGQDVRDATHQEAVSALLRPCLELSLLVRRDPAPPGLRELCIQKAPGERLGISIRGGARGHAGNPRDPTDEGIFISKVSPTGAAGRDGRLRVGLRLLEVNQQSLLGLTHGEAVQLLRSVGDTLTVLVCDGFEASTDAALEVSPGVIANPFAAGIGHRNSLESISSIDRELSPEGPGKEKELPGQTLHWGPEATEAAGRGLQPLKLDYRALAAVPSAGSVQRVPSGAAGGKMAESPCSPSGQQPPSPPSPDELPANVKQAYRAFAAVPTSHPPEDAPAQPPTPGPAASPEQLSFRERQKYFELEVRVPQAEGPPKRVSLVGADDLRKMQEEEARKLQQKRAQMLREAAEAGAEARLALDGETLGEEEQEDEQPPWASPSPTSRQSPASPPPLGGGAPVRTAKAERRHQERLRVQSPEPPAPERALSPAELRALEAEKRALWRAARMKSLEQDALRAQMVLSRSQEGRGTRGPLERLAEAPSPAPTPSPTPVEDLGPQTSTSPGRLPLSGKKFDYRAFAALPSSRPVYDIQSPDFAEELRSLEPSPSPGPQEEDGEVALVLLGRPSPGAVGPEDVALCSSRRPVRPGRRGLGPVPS
UniProt P08670: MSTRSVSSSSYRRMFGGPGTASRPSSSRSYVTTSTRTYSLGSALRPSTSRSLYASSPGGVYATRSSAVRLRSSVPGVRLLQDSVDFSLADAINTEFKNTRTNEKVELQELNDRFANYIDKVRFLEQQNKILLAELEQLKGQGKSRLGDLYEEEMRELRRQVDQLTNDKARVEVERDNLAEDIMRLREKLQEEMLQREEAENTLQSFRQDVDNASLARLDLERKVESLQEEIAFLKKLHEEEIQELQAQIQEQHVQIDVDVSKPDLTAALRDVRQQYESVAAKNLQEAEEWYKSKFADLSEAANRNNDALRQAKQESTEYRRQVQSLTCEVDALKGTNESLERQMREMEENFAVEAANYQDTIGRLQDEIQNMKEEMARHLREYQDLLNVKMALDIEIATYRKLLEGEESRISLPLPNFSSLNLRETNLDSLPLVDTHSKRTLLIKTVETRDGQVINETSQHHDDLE

Molecular target: HA-tagged hScrib (human) (UniProt Q14160)
Experiment: affinity purification with mass spectrometry; HEK293 transfected with HA-tagged hScrib, 24 h; lysis buffer 50 mM Hepes pH 7.4, 150 mM NaCl, 50 mM NaF, 1 mM EDTA, 0.25% NP40; anti-HA beads 2-3 h at 4°C; washed with PBS

Substance: vimentin (from UniProt P08670 1-466)
- binding: binds

Results are given in words; binding and its absence hold for the method and conditions named. Binding seen in cells or lysates may run through a third protein. A yes stands for co-enrichment or nearness to the bait. Other partners may have been found.
